This experiment deals with Polo-like kinase 1 (PLK1), endogenous in 3T3-L1 fibroblasts (mouse (endogenous in 3T3-L1)) (UniProt Q07832). Kind of experiment: co-IP; 3T3-L1 fibroblast lysate in buffer A (20 mM HEPES pH 7.4, 0.25 M sucrose, 1 mM EDTA) with 1% Nonidet P-40; 3 h at 4°C with rabbit α-sorcin or rabbit α-PLK1, protein G-Sepharose; western blot. (In general: In western blotting, separated proteins are transferred to a membrane and probed.)

By UniProt entry, the sequences of proteins in these tests, tags left out.
UniProt Q07832: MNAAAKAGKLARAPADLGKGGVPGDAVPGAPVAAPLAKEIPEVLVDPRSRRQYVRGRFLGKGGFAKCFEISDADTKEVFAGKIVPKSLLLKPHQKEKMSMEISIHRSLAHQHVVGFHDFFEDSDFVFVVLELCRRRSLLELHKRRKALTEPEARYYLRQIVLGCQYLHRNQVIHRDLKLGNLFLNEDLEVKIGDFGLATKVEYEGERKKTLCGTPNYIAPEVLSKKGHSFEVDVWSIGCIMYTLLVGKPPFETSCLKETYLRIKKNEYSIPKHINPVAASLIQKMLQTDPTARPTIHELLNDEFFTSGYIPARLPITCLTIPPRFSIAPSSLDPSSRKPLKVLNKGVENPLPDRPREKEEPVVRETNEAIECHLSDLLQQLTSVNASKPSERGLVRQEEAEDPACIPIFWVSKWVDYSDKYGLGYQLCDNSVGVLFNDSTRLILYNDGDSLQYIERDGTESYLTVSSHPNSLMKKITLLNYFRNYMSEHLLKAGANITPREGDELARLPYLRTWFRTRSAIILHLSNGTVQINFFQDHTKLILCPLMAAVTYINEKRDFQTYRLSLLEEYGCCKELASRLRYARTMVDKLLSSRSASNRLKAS

These are yes or no findings as the source states them, for the method shown. Binding seen in cells or lysates may run through a third protein. Some binding calls cover weakened binding; strength is not graded here.

B1: sorcin, endogenous in 3T3-L1 fibroblasts (protein, UniProt Q6P069 1-198)
chain: MAYPGHPGAGGGYYPGGYGGAPGGPAFPGQTQDPLYGYFAAVAGQDGQIDADELQRCLTQSGIAGGYKPFNLETCRLMVSMLDRDMSGTMGFNEFKELWAVLNGWRQHFISFDSDRSGTVDPQELQKALTTMGFRLSPQTVNSVAKRYSTSGKITFDDYIACCVKLRALTDSFRRRDSGQQGVVNFSYDDFIQCVMTV
For B1, the binding result is “binds”.

Source of the values: paper PMC3888430.
